Here are results for two sequences from doi:10.1101/2025.04.28.650926 (bioRxiv, 2025).

Holding throughout (test): fluorescence polarization
One data set concerns the target T1, HSF1-ΔTAD (human) (UniProt Q00613).
T1 sequence (looked up): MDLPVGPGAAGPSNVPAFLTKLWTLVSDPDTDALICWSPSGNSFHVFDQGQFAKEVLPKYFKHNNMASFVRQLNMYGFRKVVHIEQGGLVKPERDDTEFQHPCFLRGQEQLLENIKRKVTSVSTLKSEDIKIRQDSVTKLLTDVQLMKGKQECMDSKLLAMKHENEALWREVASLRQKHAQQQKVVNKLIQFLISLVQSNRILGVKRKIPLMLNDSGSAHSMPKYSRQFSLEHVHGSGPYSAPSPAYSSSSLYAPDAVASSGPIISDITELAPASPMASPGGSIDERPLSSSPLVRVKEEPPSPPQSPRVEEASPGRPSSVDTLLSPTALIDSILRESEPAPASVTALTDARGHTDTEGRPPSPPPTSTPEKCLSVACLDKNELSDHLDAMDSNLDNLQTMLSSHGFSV
The settings on record: 10 uM AZD; residues 1-409.

Data set [1] has as its target T2, HSF1-LZ4m (HSF1-CT) M391K,L395P,L398R (human) (UniProt Q00613).
T2 sequence (looked up): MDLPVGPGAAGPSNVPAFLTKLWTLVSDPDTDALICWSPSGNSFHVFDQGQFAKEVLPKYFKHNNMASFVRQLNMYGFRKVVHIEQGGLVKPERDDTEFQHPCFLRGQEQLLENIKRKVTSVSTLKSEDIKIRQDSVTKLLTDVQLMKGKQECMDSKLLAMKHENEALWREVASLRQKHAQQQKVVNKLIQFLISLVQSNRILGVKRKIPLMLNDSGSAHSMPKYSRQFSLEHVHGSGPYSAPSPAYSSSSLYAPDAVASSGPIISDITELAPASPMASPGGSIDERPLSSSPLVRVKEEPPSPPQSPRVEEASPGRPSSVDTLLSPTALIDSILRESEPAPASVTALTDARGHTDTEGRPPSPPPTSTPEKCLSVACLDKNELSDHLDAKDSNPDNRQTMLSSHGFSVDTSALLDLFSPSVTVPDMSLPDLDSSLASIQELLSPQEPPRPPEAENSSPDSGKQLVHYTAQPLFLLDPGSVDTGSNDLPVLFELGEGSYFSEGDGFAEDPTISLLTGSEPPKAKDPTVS
The settings on record: 10 uM AZD; residues 1-529.

Data set [2] deals with T3, HSF1-WT trimer/oligomer (SEC peak 1) (human) (UniProt Q00613).
T3 sequence (looked up): T2 sequence (looked up) with K391M, P395L, R398L
The settings on record: 10 uM AZD; residues 1-529.

The next data set has as its target T4, HSF1-DBD (human) (UniProt Q00613).
T4 sequence (looked up): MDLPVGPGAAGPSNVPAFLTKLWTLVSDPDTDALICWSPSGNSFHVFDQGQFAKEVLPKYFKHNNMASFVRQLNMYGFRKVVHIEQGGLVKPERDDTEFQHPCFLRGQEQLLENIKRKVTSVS
The settings on record: no AZD; residues 1-123.

Data set [3] has as its target T5, HSF1-WT monomer (SEC peak 3) (human) (UniProt Q00613).
T5 sequence (looked up): T2 sequence (looked up) with K391M, P395L, R398L
The conditions noted are these: no AZD; residues 1-529.

Residue numbers refer to the chain shown, from its start. For at least one entry, the source does not settle the construct or the ends of the probe. Where a protein sequence is shown, tags need not be part of it.

For orientation: Kd means the constant that tells how readily two partners part at equilibrium. For the sequence “CCTGGAATATTCCCGAACTGGC (double strand) [HSE (canonical three-site)]”, the Kd with HSF1-ΔTAD (human) stood at 202 nM; in data set [1], 114 nM; in data set [2], 113 nM; with HSF1-DBD (human) it was 261 nM.
For “CCTGGCGTAGTCCCCGCCTGGC (double strand) [mHSE (mutant HSE)]”, the Kd in data set [3] was 1170 nM.
